Assay results from EP4692091A1 (Changchun Genescience Pharmaceutical Co., Ltd., priority 2023, dated 2024).

Assay: general procedure: solution-phase peptide synthesis; HATU/DIPEA; DMTMM/triethylamine
Conditions: coupling step

In order of rising step yield:
1. Benzyl (11S,19R)-11-benzyl-1-(9H-fluoren-9-yl)-19-methyl-3,6,9,12,15-pentaoxo-2,18-dioxo-4,7,10,13,16-pentaazabenzofuran-21-oate  42%
2. benzyl (11S, 19R)-11-benzyl-19-cyclopropyl-1-(9H-fluoro-9-yl)-3,6,9,12,15-pentaoxo-2,18-dioxo-4,7,10,13,16-pentaazaeicosanoate  76%

Same assay, conditions: late stage modification step

In order of rising step yield:
1. (1R,3S)-3-(((S)-7-benzyl-20-(2,5-dioxo-2,5-dihydro-1H-pyrrol-1-yl)-3,6,9,12,15-pentaoxo-2,7,8,11,14-pentaazaeicosyl)oxy)cyclobutane-1-carboxylic acid  13%
2. (3R,11S)-11-benzyl-3-methyl-24-(2-(methylsulfonyl)pyrimidin-5-yl)-7,10,13,16,19-pentaoxo-4-oxo-6,9,12,15,18-pentaazatetracarbonyl-23-enoic acid  21%
3. (3R, 11S)-11-benzyl-24-(2,5-dioxo-2,5-dihydro-1H-pyrrol-1-yl)-3-methyl-7,10,13,16,19-pentaoxo-4-oxa-6,9,12,15,18-pentaazabutanoic acid  39%
4. (2R,10S)-16-amino-10-benzyl-2-cyclopropyl-6,9,12,15-tetraoxo-3-oxo-5,8,11,14-tetraazahexadecanoic acid  54%
5. benzyl (11S,19R)-11-benzyl-19-cyclopropyl-1-(9H-fluoren-9-yl)-3,6,9,12,15-pentaoxo-2,18-dioxo-4,7,10,13,16-pentaazaeicosanoate  71%
6. (7S,15R)-1-amino-7-benzyl-15-methyl-2,5,8,11-tetraoxo-14-oxo-3,6,9,12-tetraazaheptadecan-17-carboxylic acid  76%
